About 5,400 (1.8%) of roughly 300,000 compounds were called active. Inconclusive results, whose numbers are uncertain, are shown with a selection of clear calls. Calls come from the whole dose curve; tested in HEK293 cells. Potencies of inconclusive entries are doubtful fits and often do not repeat.
Assay: qHTS for inhibitors of binding or entry into cells for Marburg Virus
Conditions: Marburg virus pseudotyped entry inhibition, cell reporter; activity change, negative = inhibition: at 37.8 µM (top of the series) unless noted
% is set by controls: 0 for no effect and ±100 for the full control effect; potency is the fitted concentration of half-maximal effect.

Compound | Potency | activity change, negative = inhibition
O=C1c2ccccc2C(Nc2ccc(F)c(Cl)c2)N1Cc1ccco1 (stereo unspecified) | inconclusive: 29.1 µM [inhibitor, single point] | 
CC(C)C1N=C2c3ccccc3N=C(SCC(=O)c3ccc(O)c(O)c3)N2C1=O (stereo unspecified) | inconclusive: 7.08 µM [inhibitor, full curve, poor fit] | 
CCOc1ccc(NC(=O)Nc2nc(SCC)ns2)cc1 | inconclusive: 8.91 µM [inhibitor, partial curve, poor fit] | 
CCCCNC(=O)NNC(=O)c1cc(C)on1 |  | inactive: -16.1%
O=C(COc1ccccc1F)N1N=C(c2cccs2)CC1c1ccco1 (stereo unspecified) | inconclusive: 15.8 µM [inhibitor, single point] | 
CCC(C)NC(=O)CSc1c2c(nc3cc(Cl)ccc13)CCCC2 (stereo unspecified) |  | inactive: -6.17% [at 46.1 µM]
CCOC(=O)C1=C(Nc2ccccc2)CC(C)(O)C(C(=O)OCC)C1c1ccc(Cl)cc1 (stereo unspecified) | inconclusive: 22.4 µM [inhibitor, single point] | 
COc1ccc(C(=O)Nc2cc(-c3nc4ccccc4s3)ccc2OC)cc1 | inconclusive: 3.16 µM [inhibitor, single point] | 
O=C(Nc1ccc2nc(SCC(=O)N3CCOCC3)sc2c1)c1ccc(Br)cc1 | inconclusive: 35.5 µM [inhibitor, partial curve, poor fit] | 
Cc1ccc(NC(=O)c2noc3c2CCCCC3)cc1 | inconclusive: 20.6 µM [inhibitor, single point] | 
Cc1ccc(-c2noc(-c3ccccc3C(=O)N3CCOCC3)n2)cc1 |  | inactive: -0.695%
Cc1ccc(NC(=O)C2CCN(c3ncnc4sc(C)c(C)c34)CC2)cc1S(=O)(=O)N(C)C | inconclusive: 8.91 µM [inhibitor, partial curve, poor fit] | 
Cc1ccc2ccc(S(=O)(=O)NCc3ccco3)cc2c1 | inconclusive: 15.8 µM [activator, partial curve, poor fit] | 
Cc1cc(Cl)ccc1NC(=S)NCc1ccc(F)cc1 | inconclusive: 5.62 µM [inhibitor, single point] | 
CCc1nc(-c2ccc(-c3ccc(OC)cc3)nc2OC)no1 | inconclusive: 29.1 µM [inhibitor, single point] | 
O=C(N=C1SCC(=O)N1c1ccccc1Cl)c1ccco1 |  | inactive: 3.1%
COc1ccccc1Cn1c(=S)[nH]c2cc(C(=O)NCC3CCCO3)ccc2c1=O (stereo unspecified) | inconclusive: 7.08 µM [inhibitor, full curve] | 
CC1CCC(=NNC(=O)Cc2ccccc2)CC1 (stereo unspecified) |  | inactive: 4.77%
CCn1c(=O)c(=O)n(CC)c2cc(N3CCCCC3)c(NC(=O)c3ccccc3OC)cc21 |  | inactive: -0.378% [at 46.1 µM]
COC(=O)N/N=C/c1cn(CCCOc2ccc(C)cc2)c2ccccc12 | inconclusive: 7.31 µM [inhibitor, partial curve] | 
C/C(=N\NC(=O)c1ccccc1)c1cccc(Br)c1 | inconclusive: 8.91 µM [activator, partial curve, poor fit] | 

Compound | Potency | activity change, negative = inhibition
Cc1ccn2c(=O)c(C(=O)NC3CCCCC3C)c(O)nc2c1 (stereo unspecified) | inconclusive: 1.26 µM [inhibitor, single point] | 
CN(C)/N=C/c1cn(-c2ccccc2)nc1-c1cccnc1 |  | inactive: 10.5% [at 46.1 µM]
CCCN1CCN(CC2=C(C(=O)OCC)C(c3ccc(OC(C)C)cc3)NC(=O)N2)CC1 (stereo unspecified) | inconclusive: 35.5 µM [inhibitor, single point] | 
CCN(C(=S)NCc1ccccc1)c1cccc2ccccc12 | inconclusive: 20 µM [inhibitor, partial curve, poor fit] | 
CCOC(=O)C1(Cc2cccc(OC)c2)CCN(C2CCOCC2)CC1 |  | inactive: 4.22%
CCc1cc2ccc(OC)cc2nc1SCC(=O)Nc1cc(C)on1 | inconclusive: 0.562 µM [inhibitor, full curve, poor fit] | 
C=CCN(c1ccccc1OC)S(=O)(=O)c1cccc(C(=O)NCC(c2ccc(OC)cc2)N2CCCC2)c1 (stereo unspecified) | inconclusive: 35.5 µM [inhibitor, partial curve, poor fit] | 
CN(C)CCNc1ccc2nnn3c4ccc(O)cc4c(=O)c1c23 | inconclusive: 0.501 µM [inhibitor, full curve, poor fit] | 
Fc1ccc2nc(Nc3ccccc3)sc2c1 | inconclusive: 22.4 µM [inhibitor, single point] | 
CC(=O)c1c(C)[nH]c(C(=O)OCn2nnc3ccccc3c2=O)c1C | inconclusive: 22.4 µM [inhibitor, single point] | 
CN1CCC(N(C)C(=O)/C=C/c2cn(-c3ccccc3)nc2-c2cccs2)CC1 | inconclusive: 15.8 µM [inhibitor, partial curve, poor fit] | 
CCOc1ccc(N2C(=O)C(Cl)=C(N3CCOCC3)C2=O)cc1 |  | inactive: -22.5%
Cn1c(=O)c([N+](=O)[O-])c(NC2CCS(=O)(=O)C2)c2ccccc21 (stereo unspecified) |  | inactive: -5.55%
C=C(C)C(=O)OC[C@@H]1CN2[C@H](c3ccc(Br)cc3)[C@H](C)CC[C@H]2C(=O)O1 | inconclusive: 4.73 µM [activator, single point] | 
COc1ccc(CC(=O)Nc2cccc(SC)c2)cc1OC | inconclusive: 10 µM [inhibitor, partial curve] | 
CC(NC(=O)c1ccc(N2CCNCC2)c([N+](=O)[O-])c1)C12CC3CC(CC(C3)C1)C2 (stereo unspecified) | inconclusive: 0.794 µM [inhibitor, full curve, poor fit] | 
Cc1cc(C(=O)COC(=O)c2ccc(N)cc2)c(C)n1-c1c(C)n(C)n(-c2ccccc2)c1=O | inconclusive: 5.62 µM [inhibitor, single point] | 
CC(C)c1ccccc1-n1c(SCc2cc(=O)oc3ccc4ccccc4c23)nnc1-c1cccnc1 | inconclusive: 10 µM [inhibitor, partial curve, poor fit] | 
C=CCN(CC=C)Cc1cc(=O)oc2cc(C)ccc12 | inconclusive: 31.5 µM [inhibitor, partial curve, poor fit] | 
CN(C)CCCNC(=S)N(CCN(C)C)Cc1cc2cc3c(cc2[nH]c1=O)OCCO3 | inconclusive: 7.94 µM [inhibitor, partial curve, poor fit] | 

Quoted from the results shown for reference:
Compound | Potency | activity change, negative = inhibition
CN(C)/N=C/c1cn(-c2ccccc2)nc1-c1cccnc1 |  | inactive: 10.5% [at 46.1 µM]
CCCN1CCN(CC2=C(C(=O)OCC)C(c3ccc(OC(C)C)cc3)NC(=O)N2)CC1 (stereo unspecified) | inconclusive: 35.5 µM [inhibitor, single point] | 
CCN(C(=S)NCc1ccccc1)c1cccc2ccccc12 | inconclusive: 20 µM [inhibitor, partial curve, poor fit] | 
CCOC(=O)C1(Cc2cccc(OC)c2)CCN(C2CCOCC2)CC1 |  | inactive: 4.22%
CCc1cc2ccc(OC)cc2nc1SCC(=O)Nc1cc(C)on1 | inconclusive: 0.562 µM [inhibitor, full curve, poor fit] | 
C=CCN(c1ccccc1OC)S(=O)(=O)c1cccc(C(=O)NCC(c2ccc(OC)cc2)N2CCCC2)c1 (stereo unspecified) | inconclusive: 35.5 µM [inhibitor, partial curve, poor fit] | 
CN(C)CCNc1ccc2nnn3c4ccc(O)cc4c(=O)c1c23 | inconclusive: 0.501 µM [inhibitor, full curve, poor fit] | 
Fc1ccc2nc(Nc3ccccc3)sc2c1 | inconclusive: 22.4 µM [inhibitor, single point] | 
